Article PMC8917221

Legend:
[1] = target: Bmc1 PrA (S. pombe Bin3/MePCE homolog Bmc1, protein A-tagged at the genomic locus) (S. pombe); assay: co-IP; as a3, with benzonase treatment
[2] = target: Bmc1 PrA (S. pombe Bin3/MePCE homolog Bmc1, protein A-tagged at the genomic locus) (S. pombe); assay: co-IP; S. pombe lysate in Co-IP lysis buffer (10 mM Tris HCl pH 7.5, 150 mM NaCl, 0.5% NP40); western blots with anti-myc and anti-Protein A
[3] = target: Bmc1 PrA (S. pombe Bin3/MePCE homolog Bmc1, protein A-tagged at the genomic locus) (S. pombe); assay: co-IP; as a3, in a TER1 knockout strain

Measured: binding

B1: Pof8-myc (protein, UniProt O13795 1-402)
chain: MFVPRQLNVRKIKAFTGKENNSIADGNNNKLKDEHYKHNEASKEPSHSISGGLMLNQQDRQLIEPLNPDFLSAVDSILEIYFHRERQKEKVHLAFLIQQDDFWKGIRPNPTQNNLKYALSYVTNALFHFDNSSHMVIRNENIVLPLDIPLYDRIIYVEPVPATLSNKSLLLAGKLRKYLKEFLPYVDAIGTPEGYAFVILYKKVDQSALSKLPVPPGWVLLTRKEWTNREEKYFENQLHLVKASSSDVSNSSNSFPENRYPKLTKVEKQMTKSVSKTSQTDKDEDNLDFTKNLLTRIKNLHPLTNKSTIHSLLSYVFSRQTQNIACEPMYIDYRKDETEAIIRWKTPLHAETCINAFRTQERKQNSHDDIRAHRKKGSSRPFLIAELITGEEEKNYWRMLKK
binds: all assays above

These are yes or no findings as the source states them, for the method shown. Binding seen in cells or lysates may run through a third protein. Binding calls can cover weak binding; strength is not graded here. Where a sequence is shown, tags or fusion partners need not be part of it.
